Measurements reported in PubChem BioAssay AID540256 (National Center for Advancing Translational Sciences (NCATS), 2011).
About 3,700 (1.2%) of roughly 300,000 compounds were called active. Inconclusive results, whose numbers are uncertain, are shown with a selection of clear calls. Calls follow the shape of the full dose curve; tested in HEK293 cells. Potencies of inconclusive entries are doubtful fits and often do not repeat.

Assay: qHTS for Inhibitors of binding or entry into cells for Lassa Virus; also: nearly all actives have a fitted effect of over 50% in size
Conditions: Lassa virus pseudotype entry inhibition, cell reporter; series mostly up to 37.9 µM
Potency is read from the fitted curve at half-maximal effect.

SMILES | Potency
COc1cccc(NC(=S)NC(=O)Cc2ccc(Cl)cc2)c1 | inconclusive: 3.55 µM [inhibitor, single point]
O=C(NCC1CCCO1)c1ccc(N2CCCCC2)c([N+](=O)[O-])c1 (stereo unspecified) | inconclusive: 2.82 µM [inhibitor, full curve]
O=C(O)/C=C/c1ccc([N+](=O)[O-])o1 | inactive
Nc1nc(-c2ccccc2)c(N=Nc2cccc3ccccc23)s1 | inactive
Cc1ccc(C(C)C)cc1OCC(=O)N/N=C/c1ccc2c(c1)OCCO2 | active: 1.12 µM
O=C(COC(=O)c1ccco1)c1ccc(S(=O)(=O)N2CCCCC2)cc1 | inconclusive: 2.82 µM [inhibitor, partial curve, poor fit]
COc1cc(Cl)cc(C2NC(=S)NC(c3ccccc3)=C2C(C)=O)c1OCC(=O)O (stereo unspecified) | inactive
C(=N\n1cnnc1)/c1cn(Cc2ccccc2)c2ccccc12 | inconclusive: 5.17 µM [inhibitor, partial curve, poor fit]
Cn1nnnc1Sc1ncnc2scc(-c3ccc(F)cc3)c12 | active: 4.11 µM
Cc1cc2cc(CN(Cc3nnnn3C3CCCCC3)CC3CCCO3)c(=O)[nH]c2cc1C (stereo unspecified) | inconclusive: 8.2 µM [inhibitor, partial curve, poor fit]
Cc1nc(NC(=O)CSc2ccc(-c3nc4ccccc4[nH]3)cn2)sc1C | inactive
O=C(CSc1ncnc2c1nnn2Cc1ccccc1F)NCC1CCCO1 (stereo unspecified) | inconclusive: 35.5 µM [inhibitor, single point]
Cc1ccc(S(=O)(=O)CCNC(=O)Cc2ccc(Cl)cc2)cc1 | inactive
C/C=C(\C)C(=O)OC1c2c(ccc3ccc(=O)oc23)OC(C)(C)C1OC(C)=O (stereo unspecified) | inactive
O=C(NCc1ccc(Cl)cc1)c1cnc(N2CCCCC2)c2ccccc12 | inactive
O=C(Cc1ccc(NS(=O)(=O)c2ccc(Cl)c(Cl)c2)cc1)NCCN1CCOCC1 | inactive
Cc1ccc(NC(=O)/C(C#N)=C/c2ccc(Sc3nc(C)cc(C)n3)o2)cc1 | inconclusive: 8.2 µM [inhibitor, partial curve, poor fit]
CCC(C)(C)NC(=O)CN(C(=O)C(=O)Nc1ccc2c(c1)OCCO2)C1CC1 | inactive
CCOC(=O)Cn1c(=O)oc2cc(S(=O)(=O)N3CCN(c4cccc(C)c4C)CC3)ccc21 | inactive
O=C(Nc1ccc(N2CCN(C(=O)c3ccccc3)CC2)c(Cl)c1)c1cccnc1 | inconclusive: 11.6 µM [inhibitor, partial curve, poor fit]
COc1ccc(N(C(=O)C2CCCCC2)S(=O)(=O)c2cccc3cccnc23)cc1 | inconclusive: 12.6 µM [inhibitor, partial curve, poor fit]
Cc1cc(C)c(S(=O)(=O)N2CCN(C(=O)c3ccc4c(c3)OCO4)CC2)c(C)c1 | inconclusive: 17.8 µM [inhibitor, partial curve, poor fit]

SMILES | Potency
Cc1ccc(S(=O)(=O)N2CCN(C(=O)c3cc4c(C)nn(-c5ccccc5C)c4s3)CC2)cc1 | inconclusive: 22.4 µM [inhibitor, single point]
CS(=O)(=O)N1CCc2nc(-c3ccccc3)sc2C1 | inconclusive: 6.31 µM [inhibitor, single point]
COC(=O)Nc1ccc(C)cc1NC(=O)OC | inconclusive: 8.2 µM [activator, partial curve, poor fit]
COc1cc(NS(=O)(=O)c2ccc(NC(=S)NC(=O)C3CCCC3)cc2)nc(OC)n1 | inactive
COc1ccc(-n2nc(C(=O)NCC(=O)N3CCOCC3)c3ccccc3c2=O)cc1Cl | inconclusive: 1.41 µM [inhibitor, partial curve, poor fit]
CCOC(=O)c1cc(-c2csc(-c3cccc(Cl)c3)n2)on1 | inconclusive: 35.5 µM [inhibitor, single point]
COc1ccc(OC)c(NC(=O)c2noc3c2CCCC3)c1 | inconclusive: 25.1 µM [activator, single point]
O=C(Nc1cc2c3c(c1)CC(=O)N3CCC2)c1ccccc1F | inconclusive: 1.26 µM [inhibitor, single point]
O=C(OCC(=O)N1CCN(c2ccccc2)CC1)c1ccc(Cl)nc1 | inactive
COc1ccc(OCc2cccc(C(=O)NN)c2)cc1 | inconclusive: 5.8 µM [inhibitor, full curve, poor fit]
O=C(CCc1cccc(Cl)c1)NC1CCCN(Cc2ccccc2F)C1 (stereo unspecified) | inconclusive: 28.2 µM [inhibitor, single point]
CCCCN(C)CCCNC(=O)C1CCN(c2nc3ccc(CC)cc3s2)CC1 | inconclusive: 14.1 µM [inhibitor, single point]
O=C(O)CC/C(=N/NC(=O)c1cccs1)c1ccccc1 | inconclusive: 3.98 µM [activator, partial curve]
CC(C)c1ccc(NC(=O)C2CCCN(S(=O)(=O)c3cccc4cccnc34)C2)cc1 (stereo unspecified) | inconclusive: 10 µM [inhibitor, partial curve, poor fit]
O=C(COc1ccccc1)N/N=C/c1sc(=O)n(Cc2cccc(C(=O)O)c2)c1Cl | inactive
COc1ccc(-c2cc3nc(C)cc(C)n3n2)cc1 | inconclusive: 2.91 µM [activator, single point]
Cc1ccc(SCc2nc3ccccc3[nH]2)cc1 | inconclusive: 2.59 µM [activator, partial curve, poor fit]
CCC(C(=O)Nc1cc(Cl)ccc1OC)n1nc(-c2ccccc2)ccc1=O (stereo unspecified) | inactive
CC1(C)CC2(CC(c3ccccc3F)c3cc(Cl)c(O)cc3O2)NC(=S)N1 (stereo unspecified) | inconclusive: 12.6 µM [inhibitor, partial curve, poor fit]
COc1ccc(C(=O)NCCc2nnc(SCC(=O)Nc3ccccc3C(C)C)n2C)cc1 | inactive
CCN(CC)CCCn1c2c(c(SCC(=O)Nc3ccc4c(c3)OCO4)nc1=O)CCC2 | inactive
CN(C)c1ccc(/C=N/NC(=O)CCc2c[nH]c3ccccc23)cc1 | active: 2 µM

Pulled one by one from the list above (2):
SMILES | Potency
CCOC(=O)c1cc(-c2csc(-c3cccc(Cl)c3)n2)on1 | inconclusive: 35.5 µM [inhibitor, single point]
O=C(OCC(=O)N1CCN(c2ccccc2)CC1)c1ccc(Cl)nc1 | inactive

(cont.)

SMILES | Potency
COC(=O)c1[nH]nc(C(=O)OC(C)(C)C)c1-c1ccccc1 | inconclusive: 25.9 µM [inhibitor, single point]
O=C(COc1ccc(Cl)cc1Cl)NNC(=S)Nc1ccc(F)cc1 | inactive
Cc1cccc(N(C(=O)c2sc(C)nc2C)C(C(=O)NCC2CCCO2)c2ccccc2)c1 (stereo unspecified) | inconclusive: 7.94 µM [inhibitor, partial curve, poor fit]
COc1ccc(Cl)cc1S(=O)(=O)Nc1noc2ccccc12 | inconclusive: 0.631 µM [activator, full curve, poor fit]
Cc1ccccc1N/N=C/c1sc(=O)n(Cc2cccc(C(=O)O)c2)c1Cl | inactive
O=C(CCC1N=C2c3ccccc3N=C(SCc3ccc(F)cc3)N2C1=O)NCc1cccs1 (stereo unspecified) | inconclusive: 35.5 µM [inhibitor, single point]
CCOC(=O)CC(NS(=O)(=O)c1ccc2[nH]c3c(c2c1)CCCC3)c1ccccc1Cl (stereo unspecified) | inconclusive: 15.8 µM [inhibitor, single point]
COc1ccccc1Nc1ncnc2ccccc12 | inconclusive: 35.5 µM [activator, partial curve, poor fit]
CC(C)OCCCNC(=O)c1ccc2c(c1)N(Cc1c(F)cccc1Cl)C(=O)c1ccccc1S2 | inconclusive: 11.2 µM [inhibitor, partial curve, poor fit]
COc1ccc(-c2nn3c(=O)cc(CN4CCN(C(=O)c5ccc(C(C)(C)C)cc5)CC4)nc3s2)cc1 | inconclusive: 20 µM [inhibitor, partial curve, poor fit]
CCCCOc1ccc(CSc2nc(C)[nH]c2[N+](=O)[O-])cc1[N+](=O)[O-] | inconclusive: 12.6 µM [inhibitor, single point]
COCCNC(=S)N(CCO)Cc1cc2cc3c(cc2[nH]c1=O)OCO3 | inconclusive: 1.26 µM [inhibitor, single point]
COc1cc(CN2CCNC(=O)C2CC(=O)O)cc(OC)c1 (stereo unspecified) | inconclusive: 11.2 µM [activator, partial curve, poor fit]
Cc1cccn2c(=O)c3cc(C#N)c(=N)n(CCCN4CCOCC4)c3nc12 | inconclusive: 35.5 µM [activator, partial curve, poor fit]
Cc1ccc(Nc2c(-c3c[nH]c4ccccc34)nc3cc(C)ccn23)cc1 | inconclusive: 2.51 µM [activator, full curve, poor fit]
S=C(NCCc1ccc(Cl)cc1)Nc1ccc(Cl)cc1Cl | inconclusive: 22.4 µM [inhibitor, single point]
O=C1N(Cc2cccc(Cl)c2)C[C@@H]2C[C@@H](c3c[nH]c4ccccc34)N3CCC[C@@]123 | inconclusive: 39.8 µM [inhibitor, partial curve, poor fit]
Cc1cccn2cc(CNS(=O)(=O)c3ccc4ccccc4c3)nc12 | inconclusive: 0.0891 µM [inhibitor, full curve, poor fit]
CCCn1nnc(NC(=S)NC(=O)C(C)(C)C)n1 | inconclusive: 29.1 µM [activator, single point]
Cc1cc(C(=O)Nc2nnc(C(F)(F)F)s2)cs1 | inconclusive: 20 µM [inhibitor, partial curve, poor fit]
COc1cccc(C2c3cc4c(cc3OC(NNC(N)=O)C2C)OCO4)c1O (stereo unspecified) | inconclusive: 14.1 µM [inhibitor, partial curve, poor fit]
COc1cccc(C(=O)NCc2nc(-c3ccccc3)no2)c1OC | inactive

Look-ups from above:
Entry for O=C(COc1ccc(Cl)cc1Cl)NNC(=S)Nc1ccc(F)cc1 under Potency: inactive
Entry for CCCn1nnc(NC(=S)NC(=O)C(C)(C)C)n1 under Potency: inconclusive: 29.1 µM [activator, single point]
Entry for O=C(CCC1N=C2c3ccccc3N=C(SCc3ccc(F)cc3)N2C1=O)NCc1cccs1 (stereo unspecified) under Potency: inconclusive: 35.5 µM [inhibitor, single point]
